Laboratory results: PubChem BioAssay AID1259308 (NCATS, 2017)
Aim: 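Genes whose loss raises luciferase production in HEK293 cells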 (primary screen). System: human HEK293 embryonic kidney cells stably expressing firefly luciferase (HEK-CMV-Luc2-Hygro). Reagents: single siRNA against human genes, 0.8 pmol siRNA per well. Time to read-out: 72 h. Measured: 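Luciferase light (ONE-Glo) measured on one replicate plate set and viability (CellTiter-Glo) on the other, scaled to a negative control siRNA, with robust z-scores and luciferase per cell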. Scale: total luciferase, z-score and total luciferase, % of control: higher = more reporter protein produced; luciferase per cell, z-score: higher = more reporter output per viable cell; viable cells, % of control: higher = more viable cells. Hit rule: 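Active when the median/MAD z-score for overall luciferase is greater than 3; a gene was taken forward for validation with new siRNAs if at least two of its three siRNAs passed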. Meaning of the calls: active = raised luciferase; inactive = no rise.
Here is an unselected part of about 59,000 reagents. About 1,510 of them (2.6%) were called active. 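Calls use total luciferase alone and ignore viability, so some active siRNAs may act by altering cell number.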 The numbers tell different reagents against one gene apart.

| target gene | reagent no. | total luciferase, z-score | total luciferase, % of control | luciferase per cell, z-score | viable cells, % of control | activity call |
| --- | --- | --- | --- | --- | --- | --- |
| GPR141 (G protein-coupled receptor 141) | 1 | 1.55 | 113 | 0.234 | 119 | inactive |
| GPR141 (G protein-coupled receptor 141) | 2 | -0.719 | 67.6 | -0.614 | 88.8 | inactive |
| GPR141 (G protein-coupled receptor 141) | 3 | -0.954 | 62.9 | -0.415 | 78.4 | inactive |
| NEK2 (NIMA related kinase 2) | 1 | 1.91 | 120 | 1.42 | 92.3 | inactive |
| NEK2 (NIMA related kinase 2) | 2 | -1.1 | 60.1 | -0.253 | 71.8 | inactive |
| NEK2 (NIMA related kinase 2) | 3 | -0.668 | 68.6 | -0.806 | 94.8 | inactive |
| MORN2 (MORN repeat containing 2) | 1 | -0.00558 | 81.8 | 0.334 | 83.7 | inactive |
| MORN2 (MORN repeat containing 2) | 2 | 1.02 | 102 | 1.41 | 78.8 | inactive |
| MORN2 (MORN repeat containing 2) | 3 | 0.56 | 93 | 0.541 | 90.1 | inactive |
| LINC00303 (long independently transcribed non-coding RNA 303) | 1 | 1.77 | 117 | 0.75 | 107 | inactive |
| LINC00303 (long independently transcribed non-coding RNA 303) | 2 | -0.186 | 78.2 | 0.532 | 75.9 | inactive |
| LINC00303 (long independently transcribed non-coding RNA 303) | 3 | 0.266 | 87.2 | 0.339 | 89.1 | inactive |
| CMTR2 (cap methyltransferase 2) | 1 | -0.229 | 77.3 | -0.498 | 98.5 | inactive |
| CMTR2 (cap methyltransferase 2) | 2 | -0.169 | 78.5 | -0.51 | 100 | inactive |
| CMTR2 (cap methyltransferase 2) | 3 | 0.148 | 84.8 | 0.475 | 83.6 | inactive |
| BBC3 (BCL2 binding component 3) | 1 | 1.51 | 112 | 0.555 | 108 | inactive |
| BBC3 (BCL2 binding component 3) | 2 | 1.46 | 111 | 1.24 | 89.5 | inactive |
| BBC3 (BCL2 binding component 3) | 3 | -2.53 | 31.6 | -2.83 | 74.5 | inactive |
| SLC35B3 | 1 | 0.006 | 82 | -0.0904 | 93.8 | inactive |
| SLC35B3 | 2 | -0.0826 | 80.2 | 0.754 | 73.5 | inactive |
| SLC35B3 | 3 | 0.328 | 88.4 | 0.897 | 78 | inactive |
| LRIG2 (leucine rich repeats and immunoglobulin like domains 2) | 1 | -0.296 | 76 | -0.277 | 91.3 | inactive |
| LRIG2 (leucine rich repeats and immunoglobulin like domains 2) | 2 | 0.891 | 99.6 | 0.299 | 103 | inactive |
| LRIG2 (leucine rich repeats and immunoglobulin like domains 2) | 3 | -1.29 | 56.1 | -1.5 | 93 | inactive |
| IFNA8 (interferon alpha 8) | 1 | -1.57 | 50.7 | -1.12 | 76.2 | inactive |
| IFNA8 (interferon alpha 8) | 2 | 2.78 | 137 | 1.73 | 97.2 | inactive |
| IFNA8 (interferon alpha 8) | 3 | 1.16 | 105 | 2.27 | 64.5 | inactive |
| PRR33 (proline rich 33) | 1 | 1.68 | 115 | 1.94 | 77.2 | inactive |
| PRR33 (proline rich 33) | 2 | -1.18 | 58.3 | -1.81 | 105 | inactive |
| PRR33 (proline rich 33) | 3 | 1.71 | 116 | 0.589 | 111 | inactive |

Sorted by “viable cells, % of control” (descending): some entries from above.
| target gene | reagent no. | total luciferase, z-score | total luciferase, % of control | luciferase per cell, z-score | viable cells, % of control | activity call |
| --- | --- | --- | --- | --- | --- | --- |
| LRIG2 (leucine rich repeats and immunoglobulin like domains 2) | 2 | 0.891 | 99.6 | 0.299 | 103 | inactive |
| IFNA8 (interferon alpha 8) | 2 | 2.78 | 137 | 1.73 | 97.2 | inactive |
| SLC35B3 | 1 | 0.006 | 82 | -0.0904 | 93.8 | inactive |
| LRIG2 (leucine rich repeats and immunoglobulin like domains 2) | 3 | -1.29 | 56.1 | -1.5 | 93 | inactive |
| LRIG2 (leucine rich repeats and immunoglobulin like domains 2) | 1 | -0.296 | 76 | -0.277 | 91.3 | inactive |
| BBC3 (BCL2 binding component 3) | 2 | 1.46 | 111 | 1.24 | 89.5 | inactive |
| SLC35B3 | 3 | 0.328 | 88.4 | 0.897 | 78 | inactive |
| PRR33 (proline rich 33) | 1 | 1.68 | 115 | 1.94 | 77.2 | inactive |
| IFNA8 (interferon alpha 8) | 1 | -1.57 | 50.7 | -1.12 | 76.2 | inactive |
| BBC3 (BCL2 binding component 3) | 3 | -2.53 | 31.6 | -2.83 | 74.5 | inactive |
| SLC35B3 | 2 | -0.0826 | 80.2 | 0.754 | 73.5 | inactive |
| IFNA8 (interferon alpha 8) | 3 | 1.16 | 105 | 2.27 | 64.5 | inactive |

More results follow:
| target gene | reagent no. | total luciferase, z-score | total luciferase, % of control | luciferase per cell, z-score | viable cells, % of control | activity call |
| --- | --- | --- | --- | --- | --- | --- |
| WDR74 (WD repeat domain 74) | 1 | -2.1 | 40.2 | -2.33 | 82.9 | inactive |
| WDR74 (WD repeat domain 74) | 2 | 0.526 | 92.4 | 0.88 | 81.9 | inactive |
| WDR74 (WD repeat domain 74) | 3 | -0.345 | 75 | 0.66 | 70.5 | inactive |
| RBP4 (retinol binding protein 4) | 1 | -0.482 | 72.3 | -0.573 | 93.9 | inactive |
| RBP4 (retinol binding protein 4) | 2 | 1.25 | 107 | 0.753 | 97.8 | inactive |
| RBP4 (retinol binding protein 4) | 3 | 1.18 | 105 | 1.94 | 70.7 | inactive |
| RNF138 (ring finger protein 138) | 1 | 1.57 | 113 | 0.847 | 101 | inactive |
| RNF138 (ring finger protein 138) | 2 | 2.42 | 130 | 2.02 | 85.4 | inactive |
| RNF138 (ring finger protein 138) | 3 | 3.25 | 147 | 2.29 | 89.6 | active |
| MAP4K3 (mitogen-activated protein kinase kinase kinase kinase 3) | 1 | 0.745 | 96.7 | 0.552 | 93.4 | inactive |
| MAP4K3 (mitogen-activated protein kinase kinase kinase kinase 3) | 2 | -1.63 | 49.4 | -1.24 | 76.6 | inactive |
| MAP4K3 (mitogen-activated protein kinase kinase kinase kinase 3) | 3 | -0.571 | 70.5 | -0.722 | 95.3 | inactive |
| SPATC1 (spermatogenesis and centriole associated 1) | 1 | 0.199 | 85.9 | 0.464 | 84.9 | inactive |
| SPATC1 (spermatogenesis and centriole associated 1) | 2 | 0.496 | 91.7 | 0.682 | 85.7 | inactive |
| SPATC1 (spermatogenesis and centriole associated 1) | 3 | 0.127 | 84.4 | -0.129 | 97.6 | inactive |
| CROCC2 (ciliary rootlet coiled-coil, rootletin family member 2) | 1 | -0.355 | 74.8 | -0.438 | 93.8 | inactive |
| CROCC2 (ciliary rootlet coiled-coil, rootletin family member 2) | 2 | 2.53 | 132 | 2.35 | 79.6 | inactive |
| CROCC2 (ciliary rootlet coiled-coil, rootletin family member 2) | 3 | -1.27 | 56.7 | -0.709 | 76.3 | inactive |
| FXYD4 (FXYD domain containing ion transport regulator 4) | 1 | 1.5 | 112 | 0.694 | 104 | inactive |
| FXYD4 (FXYD domain containing ion transport regulator 4) | 2 | -1.71 | 47.8 | -1.59 | 81.2 | inactive |
| FXYD4 (FXYD domain containing ion transport regulator 4) | 3 | -0.34 | 75.1 | -0.217 | 88.9 | inactive |
| MPDZ (multiple PDZ domain crumbs cell polarity complex component) | 1 | -0.133 | 79.2 | -0.253 | 94.6 | inactive |
| MPDZ (multiple PDZ domain crumbs cell polarity complex component) | 2 | 0.22 | 86.3 | -0.407 | 107 | inactive |
| MPDZ (multiple PDZ domain crumbs cell polarity complex component) | 3 | -0.0806 | 80.3 | -0.452 | 101 | inactive |
| SUSD6 (sushi domain containing 6) | 1 | 1.16 | 105 | 0.707 | 97.4 | inactive |
| SUSD6 (sushi domain containing 6) | 2 | -0.16 | 78.7 | 0.863 | 70.1 | inactive |
| SUSD6 (sushi domain containing 6) | 3 | 0.148 | 84.8 | -0.738 | 115 | inactive |
| ZFP3 (ZFP3 zinc finger protein) | 1 | 0.298 | 87.8 | 0.238 | 92.2 | inactive |
| ZFP3 (ZFP3 zinc finger protein) | 2 | -0.344 | 75 | 2.6 | 42.3 | inactive |
| ZFP3 (ZFP3 zinc finger protein) | 3 | -0.0365 | 81.2 | -0.0356 | 91.5 | inactive |
| FAM13A (family with sequence similarity 13 member A) | 1 | -0.00865 | 81.7 | -0.543 | 105 | inactive |
| FAM13A (family with sequence similarity 13 member A) | 2 | -1.02 | 61.5 | -0.131 | 71.1 | inactive |
| FAM13A (family with sequence similarity 13 member A) | 3 | -2.13 | 39.6 | -1.47 | 65.2 | inactive |
| TMEM147 (transmembrane protein 147) | 1 | 2.74 | 136 | 3.05 | 68.3 | inactive |
| TMEM147 (transmembrane protein 147) | 2 | -0.932 | 63.4 | -1.06 | 93.6 | inactive |
| TMEM147 (transmembrane protein 147) | 3 | -1.15 | 58.9 | -0.644 | 78 | inactive |
| NUCLEOLIN (nucleolin multifunctional protein) | 1 | -0.109 | 79.7 | -0.28 | 95.9 | inactive |
| NUCLEOLIN (nucleolin multifunctional protein) | 2 | -0.0571 | 80.7 | 0.177 | 86.1 | inactive |
| NUCLEOLIN (nucleolin multifunctional protein) | 3 | 0.487 | 91.6 | 0.936 | 80 | inactive |
| SLC25A3 | 1 | 0.576 | 93.3 | 0.0561 | 103 | inactive |
| SLC25A3 | 2 | -0.782 | 66.3 | -1.16 | 101 | inactive |
| SLC25A3 | 3 | -0.979 | 62.4 | -1.6 | 106 | inactive |
| SLC35E4 | 1 | 0.916 | 100 | 0.574 | 96.2 | inactive |
| SLC35E4 | 2 | 2.55 | 133 | 1.49 | 100 | inactive |
| SLC35E4 | 3 | -1.02 | 61.6 | -1.06 | 90.9 | inactive |
